Literature values as cited in US20080280861A1, “Method of Female Contraception and a Kit For Use Therein” (PANTARHEI BIOSCIENCE B.V., priority 2004, published 2008).
At least one structure is not confirmed: it was looked up by name or label, or the drawing left a doubt.

Settings: relative to levonorgestrel dosage; known in the art

For `C#C[C@]1(O)CC[C@H]2[C@@H]3CCC4=CC(=O)CC[C@@H]4[C@H]3CC[C@@]21CC` [Levonorgestrel], the Conversion factor is listed as 1.
